The reference is the same well before dosing, and untreated signal decays as well.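 Fibroblast labels denote human fibroblasts, mainly primary ones from uterus (C12385, HUF), lung (H6013), bone (Hs27A), adrenal (HADF) and skin (WS1), plus mammary HMF and breast cancer-associated Hs343T. Cancer cells are basal-like or mesenchymal-like triple-negative breast cancer lines. A hit is a response shift exceeding 3x replicate standard deviation. The tissue of the other fibroblasts is not given here.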
System: MDAMB231
Assay: relative JC-1 red fluorescence (viability) vs pre-drug, coculture with fibroblast (fraction); higher = more viable cancer cells
Procedure: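 JC-1 labelled TNBC cells cocultured 1:1 (1,500 cells each) with CellTrace Violet stained primary or stromal fibroblasts in 384-well plates in FluoroBrite medium, treated with one of 42 anticancer drugs at 0.1, 1, 10 or 100 uM. JC-1 red fluorescence (mitochondrial integrity in cancer cells only) was read by plate reader every 8 h for 72 h. Values are normalised to each well's pre-drug value. The stock of one drug was tenfold lower, so its dose labels may be too high.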

C[C@]12CC[C@@H]3c4ccc(O)cc4C[C@@H](CCCCCCCCC[S+]([O-])CCCC(F)(F)C(F)(F)F)[C@H]3[C@@H]1CC[C@@H]2O (stereo partly drawn) [Fulvestrant]
relative JC-1 red fluorescence
Settings | 8 h | 16 h | 24 h | 32 h | 40 h | 48 h | 56 h | 64 h | 72 h
0.1 µM, coculture fibroblast: C12385 | 0.7771 | 0.7461 | 0.665 | 0.651 | 0.5969 | 0.5669 | 0.5231 | 0.5148 | 0.488
0.1 µM, coculture fibroblast: H6013 | 0.897 | 0.83 | 0.77 | 0.729 | 0.674 | 0.6374 | 0.6201 | 0.5943 | 0.5688
0.1 µM, coculture fibroblast: H6019 | 0.75 | 0.67 | 0.5974 | 0.576 | 0.51987 | 0.495 | 0.442 | 0.411 | 0.374
0.1 µM, coculture fibroblast: H6076 | 0.9017 | 0.811 | 0.752 | 0.744 | 0.713 | 0.686 | 0.66 | 0.647 | 0.637
0.1 µM, coculture fibroblast: H6231 | 0.9005 | 0.7992 | 0.734 | 0.683 | 0.625 | 0.591 | 0.542 | 0.523 | 0.493
0.1 µM, coculture fibroblast: HADF | 0.8823 | 0.835 | 0.781 | 0.749 | 0.718 | 0.676 | 0.655 | 0.64 | 0.592
0.1 µM, coculture fibroblast: HCFa | 0.895 | 0.85 | 0.811 | 0.781 | 0.724 | 0.68 | 0.636 | 0.6 | 0.552
0.1 µM, coculture fibroblast: HCPF | 0.881 | 0.7998 | 0.721 | 0.703 | 0.643 | 0.601 | 0.553 | 0.524 | 0.5
0.1 µM, coculture fibroblast: HHSteC | 0.927 | 0.866 | 0.816 | 0.775 | 0.736 | 0.703 | 0.664 | 0.64 | 0.607
0.1 µM, coculture fibroblast: HMF | 0.875 | 0.796 | 0.732 | 0.7 | 0.651 | 0.62 | 0.574 | 0.552 | 0.536
0.1 µM, coculture fibroblast: HPFa | 0.958 | 0.934 | 0.87 | 0.817 | 0.777 | 0.729 | 0.672 | 0.619 | 0.541
0.1 µM, coculture fibroblast: HUF | 0.869 | 0.782 | 0.773 | 0.65 | 0.58 | 0.559 | 0.507 | 0.499 | 0.469
0.1 µM, coculture fibroblast: Hs5 | 0.8849 | 0.806 | 0.757 | 0.724 | 0.679 | 0.63 | 0.594 | 0.564 | 0.531
0.1 µM, coculture fibroblast: Hs27A | 0.8885 | 0.8272 | 0.7901 | 0.7708 | 0.723 | 0.6546 | 0.66095 | 0.638 | 0.588
0.1 µM, coculture fibroblast: Hs343T | 0.878 | 0.789 | 0.717 | 0.688 | 0.633 | 0.594 | 0.547 | 0.523 | 0.496
0.1 µM, coculture fibroblast: WS1 | 0.7625 | 0.7249 | 0.633 | 0.603 | 0.553 | 0.538 | 0.494 | 0.484 | 0.467
1 µM, coculture fibroblast: C12385 | 0.765 | 0.758 | 0.699 | 0.713 | 0.661 | 0.642 | 0.61 | 0.601 | 0.581
1 µM, coculture fibroblast: H6013 | 0.908 | 0.862 | 0.8351 | 0.826 | 0.7959 | 0.776 | 0.779 | 0.774 | 0.73183
1 µM, coculture fibroblast: H6019 | 0.776 | 0.749 | 0.709 | 0.683 | 0.648 | 0.632 | 0.578 | 0.55 | 0.508
1 µM, coculture fibroblast: H6076 | 0.865 | 0.829 | 0.83 | 0.819 | 0.805 | 0.777 | 0.768 | 0.747 | 0.736
1 µM, coculture fibroblast: H6231 | 0.8966 | 0.8313 | 0.7978 | 0.7675 | 0.7258 | 0.7052 | 0.669 | 0.65 | 0.618
1 µM, coculture fibroblast: HADF | 0.894 | 0.865 | 0.854 | 0.839 | 0.832 | 0.79 | 0.799 | 0.79 | 0.746
1 µM, coculture fibroblast: HCFa | 0.889 | 0.843 | 0.794 | 0.744 | 0.691 | 0.65 | 0.631 | 0.609 | 0.565
1 µM, coculture fibroblast: HCPF | 0.911 | 0.841 | 0.807 | 0.794 | 0.752 | 0.719 | 0.698 | 0.675 | 0.649
1 µM, coculture fibroblast: HHSteC | 0.898 | 0.90133 | 0.8643 | 0.837 | 0.812 | 0.7833 | 0.7556 | 0.729 | 0.69
1 µM, coculture fibroblast: HMF | 0.8979 | 0.835 | 0.796 | 0.774 | 0.732 | 0.697 | 0.671 | 0.658 | 0.636
1 µM, coculture fibroblast: HPFa | 0.927 | 0.894 | 0.852 | 0.818 | 0.804 | 0.772 | 0.723 | 0.696 | 0.644
1 µM, coculture fibroblast: HUF | 0.845 | 0.753 | 0.779 | 0.693 | 0.651 | 0.649 | 0.604 | 0.598 | 0.575
1 µM, coculture fibroblast: Hs5 | 0.881 | 0.835 | 0.816 | 0.787 | 0.745 | 0.702 | 0.682 | 0.65 | 0.628
1 µM, coculture fibroblast: Hs27A | 0.8737 | 0.8325 | 0.8006 | 0.787 | 0.745 | 0.6771 | 0.687 | 0.672 | 0.612
1 µM, coculture fibroblast: Hs343T | 0.864 | 0.7822 | 0.759 | 0.736 | 0.702 | 0.667 | 0.638 | 0.623 | 0.602
1 µM, coculture fibroblast: WS1 | 0.7141 | 0.701 | 0.648 | 0.619 | 0.599 | 0.572 | 0.531 | 0.513 | 0.49

From the supplement of paper PMC6078165
